PubChem BioAssay AID1053208 – Peter MacCallum Cancer Centre | 2014

- Test: 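Genes whose silencing cuts survival of bone tumour cells only with doxorubicin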 (primary screen)
- Cell system: mouse osteosarcoma cells, early-passage culture from an engineered mouse model of fibroblastic bone tumour
- Reagent: siRNA pool against mouse genes, 40 nM
- Timing: about 120 h (48 h before drug, then 72 h with drug)
- Challenge: doxorubicin 100 nM for 72 h, roughly 30-40% inhibitory dose
- Detection: 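Viability read as ATP luminescence after 72 h of 100 nM doxorubicin or none, duplicate wells averaged, scaled to non-targeting siRNA, then expressed as robust z-scores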
- Scale: viability z-score with doxorubicin: higher = more viable cells under doxorubicin; viability z-score without drug: higher = more viable cells with knock-down alone
- Active means: 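Called active if knock-down leaves viability unchanged without drug (z within -2 to 2) but lowers it with doxorubicin (z at or under -2)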
This is an unselected part of about 17,000 reagents. 788 of them (4.7%) were called active. 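Calls rest on z-score classes alone; an extra cut-off of viability at most 70% of control was not applied to them.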 The numbers tell different reagents against one gene apart. A reagent listed more than once was tested more than once; the source does not tell the runs apart. Further read-outs or replicates are left out here.

no.	target gene	pool no.	combined z-score class	viability z-score with doxorubicin	viability z-score without drug	activity call
1	Coq3 (coenzyme Q3 methyltransferase)	1	low cell count with doxorubicin only	-2.92	0.17	active
2	Avpr1b (arginine vasopressin receptor 1B)	1	no change with or without drug	0	0.17	inactive
3	Avpr1b (arginine vasopressin receptor 1B)	1	no change with or without drug	1.35	0.17	inactive
4	Sspo (SCO-spondin)	1	no change with or without drug	-1.12	-0.84	inactive
5	Col8a2 (collagen, type VIII, alpha 2)	1	no change with or without drug	0.45	1.69	inactive
6	Paxx (non-homologous end joining factor)	1	no change with or without drug	0.56	0.17	inactive
7	Ndufaf3 (NADH:ubiquinone oxidoreductase complex assembly factor 3)	1	no change with or without drug	0.34	-1.01	inactive
8	Iqsec1 (IQ motif and Sec7 domain 1)	1	no change with or without drug	0.11	1.52	inactive
9	Plppr4 (phospholipid phosphatase related 4)	1	no change with or without drug	0.9	-0.51	inactive
10	Nin (ninein)	1	no change with or without drug	0.79	-0.17	inactive
11	Slc22a1	1	no change with or without drug	-1.57	0.17	inactive
12	Slc45a1	1	no change with or without drug	-0.45	0.51	inactive
13	B230325K18Rik (RIKEN cDNA B230325K18 gene)	1	no change with or without drug	-0.22	-0.84	inactive
14	Ckmt1 (creatine kinase, mitochondrial 1, ubiquitous)	1	no change with or without drug	0	-0.17	inactive
15	Scp2d1 (SCP2 sterol-binding domain containing 1)	1	low cell count with doxorubicin only	-2.02	-1.01	active
16	Acer2 (alkaline ceramidase 2)	1	no change with or without drug	0.34	1.18	inactive
17	Acer2 (alkaline ceramidase 2)	2	no change with or without drug	0	0.67	inactive
18	Arln (allregulin)	1	no change with or without drug	0.22	0.34	inactive
19	Rgs11 (regulator of G-protein signaling 11)	1	no change with or without drug	0	-1.69	inactive
20	Emc8 (ER membrane protein complex subunit 8)	1	no change with or without drug	0.56	0.34	inactive
21	Maco1 (macoilin 1)	1	no change with or without drug	0	-0.84	inactive
22	Ogt	1	no change with or without drug	1.46	-0.51	inactive
23	Ackr2 (atypical chemokine receptor 2)	1	no change with or without drug	0.67	-0.17	inactive
24	Birc6 (baculoviral IAP repeat-containing 6)	1	no change with or without drug	0.9	-1.18	inactive
25	Arhgef25 (Rho guanine nucleotide exchange factor 25)	1	no change with or without drug	0.45	-1.52	inactive
26	Vamp1 (vesicle-associated membrane protein 1)	1	no change with or without drug	-0.9	-0.84	inactive
27	Cap1 (cyclase associated actin cytoskeleton regulatory protein 1)	1	no change with or without drug	0.45	-0.17	inactive
28	Snx29 (sorting nexin 29)	1	no change with or without drug	-0.45	-0.17	inactive
29	Rcan3 (regulator of calcineurin 3)	1	no change with or without drug	1.8	0.51	inactive
30	4930539J05Rik (RIKEN cDNA 4930539J05 gene)	1	no change with or without drug	0.22	0.51	inactive
31	Man2b2 (mannosidase 2, alpha B2)	1	no change with or without drug	1.01	0.34	inactive
32	Pop1	1	no change with or without drug	-1.35	-1.18	inactive
33	Mmgt1 (membrane magnesium transporter 1)	1	no change with or without drug	-0.56	-0.51	inactive
34	Herpud1	1	no change with or without drug	-1.01	-0.17	inactive
35	Khdrbs2	1	no change with or without drug	-1.35	-0.84	inactive
36	Pex11g (peroxisomal biogenesis factor 11 gamma)	1	low cell count with doxorubicin only	-3.82	-1.52	active
37	Kras (Kras proto-oncogene, GTPase)	1	no change with or without drug	-0.22	-0.67	inactive
38	Zfp286 (zinc finger protein 286)	1	no change with or without drug	0	-1.18	inactive
39	Etv5 (ets variant 5)	1	no change with or without drug	1.57	1.35	inactive
40	Abcg3 (ATP binding cassette subfamily G member 3)	1	no change with or without drug	-0.45	-0.51	inactive
41	Npas3 (neuronal PAS domain protein 3)	1	no change with or without drug	0.11	0.34	inactive
42	Rims2 (regulating synaptic membrane exocytosis 2)	1	no change with or without drug	-1.12	-1.18	inactive
43	Psap (prosaposin)	1	no change with or without drug	0.45	0.34	inactive
44	Selenop (selenoprotein P)	1	no change with or without drug	-1.35	-0.17	inactive
45	Chaf1a (chromatin assembly factor 1, subunit A)	1	no change with or without drug	-0.79	0.84	inactive
46	Hacl2 (2-hydroxyacyl-CoA lyase 2)	1	no change with or without drug	-1.35	-0.84	inactive
47	Snap29 (synaptosomal-associated protein 29)	1	no change with or without drug	-0.34	-0.67	inactive
48	Ccn2 (cellular communication network factor 2)	1	high cell count with doxorubicin only	2.02	-0.84	inactive
49	Hemgn (hemogen)	1	no change with or without drug	0.56	1.18	inactive
50	Fzd8 (frizzled class receptor 8)	1	no change with or without drug	-0.34	-0.17	inactive

Laid out differently: 8 of the entries above
{"target gene":"Kras (Kras proto-oncogene, GTPase)","pool no.":1,"combined z-score class":"no change with or without drug","viability z-score with doxorubicin":-0.22,"viability z-score without drug":-0.67,"activity call":"inactive"}
{"target gene":"Zfp286 (zinc finger protein 286)","pool no.":1,"combined z-score class":"no change with or without drug","viability z-score with doxorubicin":0,"viability z-score without drug":-1.18,"activity call":"inactive"}
{"target gene":"Etv5 (ets variant 5)","pool no.":1,"combined z-score class":"no change with or without drug","viability z-score with doxorubicin":1.57,"viability z-score without drug":1.35,"activity call":"inactive"}
{"target gene":"Abcg3 (ATP binding cassette subfamily G member 3)","pool no.":1,"combined z-score class":"no change with or without drug","viability z-score with doxorubicin":-0.45,"viability z-score without drug":-0.51,"activity call":"inactive"}
{"target gene":"Npas3 (neuronal PAS domain protein 3)","pool no.":1,"combined z-score class":"no change with or without drug","viability z-score with doxorubicin":0.11,"viability z-score without drug":0.34,"activity call":"inactive"}
{"target gene":"Rims2 (regulating synaptic membrane exocytosis 2)","pool no.":1,"combined z-score class":"no change with or without drug","viability z-score with doxorubicin":-1.12,"viability z-score without drug":-1.18,"activity call":"inactive"}
{"target gene":"Psap (prosaposin)","pool no.":1,"combined z-score class":"no change with or without drug","viability z-score with doxorubicin":0.45,"viability z-score without drug":0.34,"activity call":"inactive"}
{"target gene":"Selenop (selenoprotein P)","pool no.":1,"combined z-score class":"no change with or without drug","viability z-score with doxorubicin":-1.35,"viability z-score without drug":-0.17,"activity call":"inactive"}
